{"source": "PubChem BioAssay AID1159598 (NIAID, 2016)", "screen": "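Canonical TLR pathway genes needed for TNF promoter response to flagellin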", "cell system": "human THP-1 B5 reporter cells made macrophage-like with PMA", "reagents": "single siRNA against human genes", "duration": "reporter read 48 to 72 hours after siRNA transfection", "treatment": "flagellin stimulation for 4 hours, dose not given", "detection": "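TNF promoter firefly luciferase over renilla after 4 h flagellin, plate median/MAD scaled, robust z versus negative controls, mean of replicates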", "direction": "TNF reporter z-score: higher = stronger TNF promoter activity than controls", "hit rule": "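Active means the mean reporter z is about 1.5 or more, or about -1.5 or less; values closer to zero are inactive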", "meaning of the calls": "active = reporter shifted beyond 1.5 z, up or down; inactive = reporter within 1.5 z of controls", "note": "This is one part, drawn at random, of 756 reagents. In the full data, 142 (19%) are marked active. 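Active includes both higher and lower reporter signal; each gene has six separate siRNAs, and no gene-level summary is deposited.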 The numbers tell different reagents against one gene apart. No sequences are given here. The record does not give: the amount of reagent."}
{"gene":"MAPK10","reagent":1,"TNF reporter z-score":-0.2,"call":"inactive"}
{"gene":"MAPK10","reagent":2,"TNF reporter z-score":-1.04,"call":"inactive"}
{"gene":"MAPK10","reagent":3,"TNF reporter z-score":-0.287,"call":"inactive"}
{"gene":"MAPK10","reagent":4,"TNF reporter z-score":0.117,"call":"inactive"}
{"gene":"MAPK10","reagent":5,"TNF reporter z-score":0.288,"call":"inactive"}
{"gene":"MAPK10","reagent":6,"TNF reporter z-score":-0.0669,"call":"inactive"}
{"gene":"PIK3CG","reagent":1,"TNF reporter z-score":-3.36,"call":"active"}
{"gene":"PIK3CG","reagent":2,"TNF reporter z-score":-0.209,"call":"inactive"}
{"gene":"PIK3CG","reagent":3,"TNF reporter z-score":-1.34,"call":"inactive"}
{"gene":"PIK3CG","reagent":4,"TNF reporter z-score":-2.26,"call":"active"}
{"gene":"PIK3CG","reagent":5,"TNF reporter z-score":-0.203,"call":"inactive"}
{"gene":"PIK3CG","reagent":6,"TNF reporter z-score":-1.18,"call":"inactive"}
{"gene":"REL","reagent":1,"TNF reporter z-score":-0.0581,"call":"inactive"}
{"gene":"REL","reagent":2,"TNF reporter z-score":-0.00525,"call":"inactive"}
{"gene":"REL","reagent":3,"TNF reporter z-score":-0.0187,"call":"inactive"}
{"gene":"REL","reagent":4,"TNF reporter z-score":-2.02,"call":"active"}
{"gene":"REL","reagent":5,"TNF reporter z-score":-0.181,"call":"inactive"}
{"gene":"REL","reagent":6,"TNF reporter z-score":-0.284,"call":"inactive"}
{"gene":"CD180","reagent":1,"TNF reporter z-score":0.575,"call":"inactive"}
{"gene":"CD180","reagent":2,"TNF reporter z-score":-0.0553,"call":"inactive"}
{"gene":"CD180","reagent":3,"TNF reporter z-score":-0.928,"call":"inactive"}
{"gene":"CD180","reagent":4,"TNF reporter z-score":-0.711,"call":"inactive"}
{"gene":"CD180","reagent":5,"TNF reporter z-score":-0.823,"call":"inactive"}
{"gene":"CD180","reagent":6,"TNF reporter z-score":0.167,"call":"inactive"}
{"gene":"AKT1","reagent":1,"TNF reporter z-score":0.278,"call":"inactive"}
{"gene":"AKT1","reagent":2,"TNF reporter z-score":0.742,"call":"inactive"}
{"gene":"AKT1","reagent":3,"TNF reporter z-score":-2.2,"call":"active"}
{"gene":"AKT1","reagent":4,"TNF reporter z-score":-0.015,"call":"inactive"}
{"gene":"AKT1","reagent":5,"TNF reporter z-score":0.189,"call":"inactive"}
{"gene":"AKT1","reagent":6,"TNF reporter z-score":-0.706,"call":"inactive"}
{"gene":"TLR2","reagent":1,"TNF reporter z-score":0.649,"call":"inactive"}
{"gene":"TLR2","reagent":2,"TNF reporter z-score":-0.51,"call":"inactive"}
{"gene":"TLR2","reagent":3,"TNF reporter z-score":-1.66,"call":"active"}
{"gene":"TLR2","reagent":4,"TNF reporter z-score":1.56,"call":"active"}
{"gene":"TLR2","reagent":5,"TNF reporter z-score":-0.516,"call":"inactive"}
{"gene":"TLR2","reagent":6,"TNF reporter z-score":0.17,"call":"inactive"}
{"gene":"TIRAP","reagent":1,"TNF reporter z-score":0.141,"call":"inactive"}
{"gene":"TIRAP","reagent":2,"TNF reporter z-score":-2.92,"call":"active"}
{"gene":"TIRAP","reagent":3,"TNF reporter z-score":-0.878,"call":"inactive"}
{"gene":"TIRAP","reagent":4,"TNF reporter z-score":-0.235,"call":"inactive"}
{"gene":"TIRAP","reagent":5,"TNF reporter z-score":0.548,"call":"inactive"}
{"gene":"TIRAP","reagent":6,"TNF reporter z-score":-0.348,"call":"inactive"}

A stretch of the results above, as a working copy:
{"gene":"REL","reagent":6,"TNF reporter z-score":-0.284,"call":"inactive"}
{"gene":"CD180","reagent":1,"TNF reporter z-score":0.575,"call":"inactive"}
{"gene":"CD180","reagent":2,"TNF reporter z-score":-0.0553,"call":"inactive"}
{"gene":"CD180","reagent":3,"TNF reporter z-score":-0.928,"call":"inactive"}
